Experimental data: PubChem BioAssay AID720505 (Drosophila RNAi Screening Center, 2013)
The deposit covers about 20,000 reagents; shown is a random part of those with a known target gene and a result. Over the whole deposit, about 2,100 (10%) got an active call. 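Raw plate signals without normalisation; calls rest on control-based scores that were not deposited; replicate 2 separates called from uncalled poorly.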 Unmarked entries are inactive. Names joined by + are all predicted targets of the reagent. Not given: the amount of reagent, the time to read-out.

Assay: 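Knock-downs that reduce calcium influx once internal stores are emptied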 (primary screen)
Cell system: Drosophila S2R+ cells
Knock-down reagent: long dsRNA against Drosophila genes
Treatment: thapsigargin (2 µM) in calcium-free buffer to empty internal stores, then 2 mM calcium added back
Read-out: 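Fluo-4 signal in 384-well plates read on a FLIPR after thapsigargin (2 µM, calcium-free) store depletion and 2 mM calcium add-back; unnormalised mean endpoint per well; screen run twice, selected wells retested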
Reading the numbers: calcium signal and retest calcium signal: higher = more calcium entry after store depletion
Rule for the call: 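About 1500 genes called as lowering calcium entry, by varying amounts, judged against per-plate control wells with STIM1 as positive and Rho1 as negative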
Meaning of the calls: active = called as lowering calcium entry; inactive = not called

target	DRSC id	calcium signal, replicate 1	calcium signal, replicate 2	retest calcium signal, replicate 1	retest calcium signal, replicate 2
TMEM216	DRSC16378	147	180		
Mst98Ca	DRSC16749	61 (active)	56.9	110	130
park + Targ3	DRSC11617	112	73.8		
CG14535	DRSC02393	88.1	150		
CG10341	DRSC02040	67 (active)	75.8		
CG13894	DRSC08364	78.8	52.7		
CG13894	DRSC23205	121	175		
Arp3	DRSC09669	114	102		
obst-A	DRSC20543	103	146		
CG11790	DRSC14390	204	252		
Tak1	DRSC20390	78.1	150		
Tak1	DRSC20561	127	108		
Tak1	DRSC20562	142	89.1		
Srg2	DRSC10681	91.3	98.4		
Prosalpha1R + Prosalpha1	DRSC07515	99.5 (active)	89.8		
regucalcin	DRSC20366	69.3 (active)	83.5		
Tnpo	DRSC11309	72.2 (active)	75.8		
alphaTub84D	DRSC12623	82.4	121		
Epg5	DRSC14778	226	149		
Tep3	DRSC03452	68.3 (active)	171		
CG18223	DRSC10306	85.2	113		
wls	DRSC10605	110	126		
CG7406	DRSC20042	92.4	86.3		
CG17272	DRSC15211	202	150		
Pka-C1	DRSC03399	95	102		
Pka-C1	DRSC23314	130	156		
dpr19	DRSC02237	178	129		
CG9752	DRSC04562	183	81.4		
CG9304	DRSC04538	159	82.3		
CG3323	DRSC18303	58.8 (active)	267		

Part of the list above in another layout.
Tak1 [DRSC20390] → calcium signal, replicate 1 = 78.1; calcium signal, replicate 2 = 150
Tak1 [DRSC20561] → calcium signal, replicate 1 = 127; calcium signal, replicate 2 = 108
Tak1 [DRSC20562] → calcium signal, replicate 1 = 142; calcium signal, replicate 2 = 89.1
Srg2 [DRSC10681] → calcium signal, replicate 1 = 91.3; calcium signal, replicate 2 = 98.4

The results go on:
target	DRSC id	calcium signal, replicate 1	calcium signal, replicate 2	retest calcium signal, replicate 1	retest calcium signal, replicate 2
Ttc30	DRSC02818	58.9 (active)	55.9	96.3	76
CG31807	DRSC01550	121	92.4		
AdamTS-A	DRSC14992	111	104		
AdamTS-A	DRSC15966	96.2	94.6		
lwr	DRSC00828	99.7	158		
CG34199	DRSC05867	144	87.4		
Gr64f	DRSC08447	78.8	95.7		
CG10646	DRSC09764	99.2	93.9		
CG8777	DRSC07263	162	131		
CG4892	DRSC01937	84	107		
l(2)dtl	DRSC04697	66.9 (active)	117		
CG2120	DRSC18207	167	154		
Polr1C	DRSC02719	70.3	124		
Coa7	DRSC20967	206	99.1		
CG4229	DRSC10407	90.2	95.3		
chrb	DRSC11335	129	79.2	165	163
NC2alpha	DRSC04059	79	89.3		
CG3734	DRSC15509	254	150		
CG32365	DRSC10040	84.6	79.4		
CG32365	DRSC10041	50.5 (active)	44.6		
CG32365	DRSC10977	66.3	55.8		
CG17883	DRSC07838	82.6	124		
CG31870	DRSC21681	187	101		
CG33521	DRSC17211	126	159		
CG33521	DRSC22919	127	183		
cta	DRSC03769	156	77.8		
